Columns and labels:
[1] = Bidirectional transport assays (BTA), apparent permeability coefficients and transport ratios; details: rainbow trout (Oncorhynchus mykiss)
[2] = tested on: DSI gill cell epithelium; experiment: as above; details: asymmetrical conditions; 6 h

- Papp A→B at 6 h, 1 μg L^−1 [1]: 0.1 ± 0.03 ×10⁻⁶ cm/s
- Papp B→A at 6 h, 1 μg L^−1 [1]: 0.1 ± 0.02 ×10⁻⁶ cm/s
- difference between Papp A:B and Papp B:A [2]: no significant differences
SMILES: CC(C)NCC(O)COc1ccc(CC(N)=O)cc1 (stereo not drawn) [Atenolol, atenolol]
